Assay results: patent US12433510B2, “Methods and systems for improved collection of interstitial fluid” (Georgia Tech Research Corporation, priority 2017, dated 2025)

Assay: High-resolution metabolomics (LC-MS): prevalence of biomarkers in plasma, ISF and suction blister fluid
[1] = biomarkers uniquely or predominately in ISF, 20 matched samples, ISF
[2] = biomarkers uniquely or predominately in ISF, 20 matched samples, SBF
[3] = biomarkers uniquely or predominately in ISF, 20 matched samples, plasma
[4] = metabolites unique to SBF, 20 samples, ISF
[5] = metabolites unique to SBF, 20 samples, SBF
[6] = metabolites unique to SBF, 20 samples, plasma
[7] = prevalence among 20 samples, plasma from venipuncture
[8] = prevalence among 20 samples, suction blister fluid
[9] = selected clinically relevant biomarkers, 20 matched samples, ISF
[10] = selected clinically relevant biomarkers, 20 matched samples, SBF
[11] = selected clinically relevant biomarkers, 20 matched samples, plasma

Row | SMILES | Prevalence of biomarker, ISF [1] | Prevalence of biomarker, SBF [2] | Prevalence of biomarker, Plasma [3] | Prevalence of biomarker, Plasma [7] | Prevalence of biomarker, SBF [8] | further results
1 | CCCCCCCC/C=C\CCCCCCCC(=O)OCC(O)CO (racemic) [1-Oleoyl-rac-glycerol] | – | – | – | – | – | Prevalence of biomarker, ISF: 0%; Prevalence of biomarker, Plasma: 5%; Prevalence of biomarker, SBF: 90%
2 | CC[C@H]1[C@@H](O)[C@@H]2[C@H](CC[C@]3(C)[C@@H]([C@H](C)CCC(=O)O)CC[C@@H]23)[C@@]2(C)CC[C@@H](O)C[C@@H]12 [6-Ethylchenodeoxycholic acid] | 85% | 0% | 0% | – | – | –
3 | C[C@]12CCC(=O)C=C1CC[C@@H]1[C@@H]2CC[C@@]2(C)[C@H]1CC[C@]2(O)C(=O)CO [11-Deoxycortisol] | – | – | – | – | – | Prevalence of biomarker, ISF [4]: 0%; Prevalence of biomarker, SBF [5]: 100%; Prevalence of biomarker, Plasma [6]: 0%
4 | O=C(O)CCCC/C=C\C[C@@H](O)/C=C/C=C/C=C\[C@@H](O)CCCC(=O)O [20-COOH-Leukotriene B4] | 55% | 5% | 5% | 5% | 5% | –
5 | Cc1o[nH]c(=O)c1CC(N)C(=O)O (centres unmarked) [AMPA] | – | – | – | – | – | Prevalence of biomarker, ISF: 65%; Prevalence of biomarker, Plasma: 10%; Prevalence of biomarker, SBF: 90%
6 | NC(=NCCC[C@H](N)C(=O)O)N[C@@H](CC(=O)O)C(=O)O [Arginosuccinic acid] | 95% | 25% | 0% | – | – | –
7 | O=C1c2c(O)cccc2C([C@@H]2O[C@H](CO)[C@@H](O)[C@H](O)[C@H]2O)c2cc(CO)cc(O)c21 (some centres unmarked) [Barbaloin] | 70% | 10% | 0% | – | – | –
8 | O=C(O)C(Cl)Br (centres unmarked) [Bromochloroacetic acid] | – | – | – | – | – | Prevalence of biomarker, ISF: 65%; Prevalence of biomarker, Plasma: 5%; Prevalence of biomarker, SBF: 10%
9 | CC(C)CCC[C@@H](C)[C@H]1CC[C@H]2[C@@H]3CC=C4C[C@@H](O)CC[C@]4(C)[C@H]3CC[C@]12C [Cholesterol] | – | – | – | – | – | Prevalence of biomarker, ISF [9]: 80%; Prevalence of biomarker, SBF [10]: 100%; Prevalence of biomarker, Plasma [11]: 100%
10 | C[C@]12C[C@H](O)[C@H]3[C@@H](CCC4=CC(=O)CC[C@@]43C)[C@@H]1CC[C@@H]2C(=O)CO [Corticosterone] | – | – | – | – | – | Prevalence of biomarker, ISF [4]: 0%; Prevalence of biomarker, SBF [5]: 100%; Prevalence of biomarker, Plasma [6]: 0%
11 | C[C@]12CCC(=O)C=C1CC[C@@H]1[C@@H]2[C@@H](O)C[C@@]2(C)[C@H]1CC[C@]2(O)C(=O)CO [Cortisol] | – | – | – | – | – | Prevalence of biomarker, ISF [9]: 30%; Prevalence of biomarker, SBF [10]: 80%; Prevalence of biomarker, Plasma [11]: 100%
12 | OC1CCCCC1O (centres unmarked) [Cyclohexane-1,2-diol] | – | – | – | 5% | 10% | –
13 | Nc1ccn([C@@H]2O[C@H](COP(=O)(O)O)[C@@H](O)[C@H]2O)c(=O)n1 [Cytidine monophosphate (CMP), Cytidine monophosphate] | – | – | – | 10% | – | –
14 | OCCNCCO [Diethanolamine] | 100% | 60% | 5% | 5% | 60% | –
15 | C=C1CC[C@H](O)C/C1=C/C=C1\CCC[C@]2(C)[C@@H]([C@H](C)/C=C/[C@H](C)C(C)C)CC[C@@H]12 [Ergocalciferol] | – | – | – | 5% | 0% | –
16 | C[C@]12CC[C@@H]3c4ccc(O)cc4CC[C@H]3[C@@H]1CC[C@@H]2OC(=O)CCC1CCCC1 [Estradiol cypionate] | 100% | 0% | 0% | – | – | –
17 | O=C(CO)[C@@H](O)[C@H](O)[C@H](O)COP(=O)(O)O [Fructose 6-phosphate] | – | – | – | 0% | 100% | –
18 | Cc1c(O)cc2c(c1C)O[C@](C)(CCC[C@H](C)CCC[C@H](C)CCCC(C)C)CC2 [Gamma Tocopherol] | 100% | 0% | 5% | – | – | –

Row | SMILES | Prevalence of biomarker, ISF [1] | Prevalence of biomarker, SBF [2] | Prevalence of biomarker, Plasma [3] | Prevalence of biomarker, Plasma [7] | Prevalence of biomarker, SBF [8] | further results
19 | O=C1O[C@@H]([C@H](O)CO)[C@@H](O)[C@H]1O [Gulonolactone] | – | – | – | 0% | 10% | –
20 | N[C@@H](CCS)C(=O)O [Homocysteine] | – | – | – | – | – | Prevalence of biomarker, ISF [9]: 55%; Prevalence of biomarker, SBF [10]: 55%; Prevalence of biomarker, Plasma [11]: 20%
21 | O=c1[nH]cnc2nc[nH]c12 [Hypoxanthine] | 80% | 100% | 0% | – | – | Prevalence of biomarker, ISF [9]: 80%; Prevalence of biomarker, SBF [10]: 100%; Prevalence of biomarker, Plasma [11]: 0%
22 | OC[C@H]1O[C@@H](n2cnc3c(O)ncnc32)[C@H](O)[C@@H]1O [Inosine] | 80% | 100% | 5% | 5% | 100% | –
23 | CC(O)C(=O)O (centres unmarked) [Lactic acid] | – | – | – | – | – | Prevalence of biomarker, ISF [9]: 100%; Prevalence of biomarker, SBF [10]: 100%; Prevalence of biomarker, Plasma [11]: 75%
24 | CCCCC/C=C\C[C@@H](O)/C=C/C=C/C=C\[C@@H](O)CCCC(=O)O [Leukotriene B4] | – | – | – | – | – | Prevalence of biomarker, ISF [9]: 100%; Prevalence of biomarker, SBF [10]: 50%; Prevalence of biomarker, Plasma [11]: 50%
25 | Cc1cc2nc3[nH]c(=O)[nH]c(=O)c3nc2cc1C [Lumichrome] | – | – | – | 5% | 10% | –
26 | CCCCCCCCCCCCCCCCC(=O)O [Margaric acid] | – | – | – | – | – | Prevalence of biomarker, ISF [9]: 100%; Prevalence of biomarker, SBF [10]: 25%; Prevalence of biomarker, Plasma [11]: 60%
27 | CN[C@@H](Cc1c[nH]cn1)C(=O)O [Methyl-histidine] | – | – | – | – | – | Prevalence of biomarker, ISF [9]: 25%; Prevalence of biomarker, SBF [10]: 55%; Prevalence of biomarker, Plasma [11]: 80%
28 | CCCC/C=C\CCCCCCCC(=O)O [Myristoleic acid] | – | – | – | – | – | Prevalence of biomarker, ISF [9]: 100%; Prevalence of biomarker, SBF [10]: 45%; Prevalence of biomarker, Plasma [11]: 85%
29 | CC(C)=CCNc1ncnc2nc[nH]c12 [N6-(delta2-Isopentenyl)-adenine] | – | – | – | 0% | 85% | –
30 | CC(=O)N[C@H]1C(O)O[C@H](CO)[C@@H](O)[C@@H]1O (stereo partly drawn) [N-Acetyl-D-glucosamine] | 100% | 90% | 10% | – | – | –
31 | CNCCc1c[nH]c2ccccc12 [N-Methyltryptamine] | – | – | – | – | – | Prevalence of biomarker, ISF: 70%; Prevalence of biomarker, Plasma: 5%; Prevalence of biomarker, SBF: 5%
32 | CC(=O)NCCCNCCCCNCCCNC(C)=O [N^1,N^12-Diacetylspermine] | 95% | 15% | 0% | – | – | –
33 | OC[C@H]1O[C@@H](n2cnc3cncnc32)[C@H](O)[C@@H]1O [Nebularine] | – | – | – | – | – | Prevalence of biomarker, ISF: 100%; Prevalence of biomarker, Plasma: 0%; Prevalence of biomarker, SBF: 20%
34 | NC(=O)c1ccc[n+]([C@@H]2O[C@H](COP(=O)([O-])O)[C@@H](O)[C@H]2O)c1 [Nicotinamide ribotide] | – | – | – | 0% | 100% | –
35 | O=C(O)C(=O)O [Oxalic acid] | – | – | – | 0% | 30% | –
36 | CCCCCC/C=C\CCCCCCCC(=O)O [Palmitoleic acid] | – | – | – | – | – | Prevalence of biomarker, ISF [9]: 100%; Prevalence of biomarker, SBF [10]: 55%; Prevalence of biomarker, Plasma [11]: 90%

Like-named read-outs stand apart in the source and are kept apart here.
